Drawing on doi:10.1101/2022.07.08.499356, this text covers binding for one substance.

Results are given in words; binding and its absence hold for the method and conditions named. In cells and extracts the contact can be indirect. Some results given as binding are weak or reduced against the parent protein; the word gives no strength.

For the assay, the target named is T1, MEC-2::mCherry, full-length MEC-2 (A isoform) (C. elegans) (UniProt Q27433).
T1 sequence: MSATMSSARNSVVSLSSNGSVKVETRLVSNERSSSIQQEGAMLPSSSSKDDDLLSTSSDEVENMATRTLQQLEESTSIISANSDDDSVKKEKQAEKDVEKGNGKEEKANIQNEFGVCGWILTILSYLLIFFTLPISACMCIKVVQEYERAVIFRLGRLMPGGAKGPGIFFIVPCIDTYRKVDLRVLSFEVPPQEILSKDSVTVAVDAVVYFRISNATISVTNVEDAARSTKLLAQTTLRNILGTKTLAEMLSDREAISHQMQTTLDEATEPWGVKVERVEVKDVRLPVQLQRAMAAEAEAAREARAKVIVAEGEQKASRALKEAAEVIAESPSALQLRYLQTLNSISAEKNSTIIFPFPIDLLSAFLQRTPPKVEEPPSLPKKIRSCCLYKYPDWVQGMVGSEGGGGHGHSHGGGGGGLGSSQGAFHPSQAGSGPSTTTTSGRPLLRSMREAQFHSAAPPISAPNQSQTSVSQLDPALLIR
The experiment in a line: FRET or BRET. In general terms: Bioluminescence resonance energy transfer reports proximity on the nanometre scale.

With “MEC-2(R385H)::Venus (from UniProt Q27433 1-481)”, the binding result is listed as “binds”.
